Primary screen of a compound library

The chains behind the UniProt entries cited, without tags or fusion partners.
UniProt P9WPC5, whole entry: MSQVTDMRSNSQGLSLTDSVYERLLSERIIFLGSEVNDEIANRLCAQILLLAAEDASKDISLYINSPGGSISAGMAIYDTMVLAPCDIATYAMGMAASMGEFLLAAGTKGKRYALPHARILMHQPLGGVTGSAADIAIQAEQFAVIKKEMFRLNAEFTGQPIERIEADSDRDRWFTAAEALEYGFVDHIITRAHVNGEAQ
UniProt P9WPC3, whole entry partner: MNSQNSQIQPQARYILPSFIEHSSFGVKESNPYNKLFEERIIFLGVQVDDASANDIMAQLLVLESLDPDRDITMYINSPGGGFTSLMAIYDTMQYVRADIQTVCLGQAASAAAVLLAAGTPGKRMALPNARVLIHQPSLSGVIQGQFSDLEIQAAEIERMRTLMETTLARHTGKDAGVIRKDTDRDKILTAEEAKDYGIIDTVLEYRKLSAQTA
UniProt P9WFT3, whole entry: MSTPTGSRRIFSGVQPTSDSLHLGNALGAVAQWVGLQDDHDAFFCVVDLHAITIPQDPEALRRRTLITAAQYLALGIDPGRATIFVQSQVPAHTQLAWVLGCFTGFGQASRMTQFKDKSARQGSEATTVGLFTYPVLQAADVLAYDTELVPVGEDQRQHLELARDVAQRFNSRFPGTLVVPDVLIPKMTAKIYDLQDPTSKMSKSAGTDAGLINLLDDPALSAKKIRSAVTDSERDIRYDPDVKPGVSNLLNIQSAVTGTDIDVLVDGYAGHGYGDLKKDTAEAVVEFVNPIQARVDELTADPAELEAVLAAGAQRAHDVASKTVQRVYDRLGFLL
UniProt P9WNZ1, whole entry: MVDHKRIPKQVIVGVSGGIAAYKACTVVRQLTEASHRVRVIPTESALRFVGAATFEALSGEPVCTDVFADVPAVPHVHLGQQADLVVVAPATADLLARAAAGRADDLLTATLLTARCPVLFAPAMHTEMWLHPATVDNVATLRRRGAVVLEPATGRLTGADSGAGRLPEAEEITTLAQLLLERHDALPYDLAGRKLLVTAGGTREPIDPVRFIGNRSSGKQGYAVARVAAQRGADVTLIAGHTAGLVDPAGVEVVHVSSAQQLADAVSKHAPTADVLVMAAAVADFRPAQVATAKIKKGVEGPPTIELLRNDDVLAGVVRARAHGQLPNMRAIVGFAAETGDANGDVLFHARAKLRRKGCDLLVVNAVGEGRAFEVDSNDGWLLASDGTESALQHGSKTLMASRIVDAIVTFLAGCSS

From ChEMBL document CHEMBL3988442, “University of Dundee, Small-Polar-MMV Screening Library” (2021).

The filed quantity is “Percent Effect” (%). The controls that fix the scale are not given in the record; negative values are as filed. This is an unselected part of the compounds tested. Two or more numbers in one place are separate tests of the same structure; such repeats can differ widely. A dash means the value is not listed here; it may have been measured.

ClpP1P2: 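Protease assay of ClpP1P2, read by the AMC dye that it sets free. Target: ClpP1P2, Mycobacterium tuberculosis (UniProt P9WPC5 and UniProt P9WPC3). Compounds at 50 µM. Direction is inferred from only a few compounds that gave an IC50; most scored high, so higher reads as stronger inhibition. Most other retested compounds had strongly negative values. Size under these conditions: about 69,000 compounds, about 10 of them at 50% or above in at least one test.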
Toxoplasma: 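Assay of Toxoplasma gondii numbers, read through their beta-galactosidase reporter with a colour substrate. Compounds at 10 µM. The record gives no direction; the compounds picked for IC50 retests had high values, so higher reads as fewer parasites. Of about 67,000 compounds tested this way, about 260 (0.38%) reached 50% or more in at least one test.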
MtTrpRS: 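Tryptophan-tRNA ligase, Mycobacterium tuberculosis (UniProt P9WFT3). Enzyme assay of tryptophanyl-tRNA synthetase; the read-out is not stated. Compounds at 10 µM. Direction is not recorded; retested compounds ran higher, which suggests that high means inhibition. Size under these conditions: about 65,000 compounds, about 64 of them at 50% or above in at least one test.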
CoaBC: 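Coenzyme A biosynthesis protein CoaBC, Mycobacterium tuberculosis (UniProt P9WNZ1). Enzyme assay of CoaBC with a phosphate dye (Biomol Green) read at 650 nm. Concentration: 30 µM. Direction is inferred from only a few compounds that gave an IC50; most scored high, so higher reads as stronger inhibition. Most strong results did not repeat in a second test. About 67,000 compounds were tested under these conditions; 0.06% (about 40) showed 50% or more at least once.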

structure	ClpP1P2	Toxoplasma	MtTrpRS	CoaBC
c1ccc(OC[C@]23COC[C@H]2CN(c2ncccn2)C3)nc1	10.72%	-	-4.302%	7.234%
CNc1nc(C(=O)N2CCC3(CCCN(CC4CC4)C3=O)C2)cs1 (centres undefined)	-29.18%	-3.612%	-1.354%	-0.4878%
Cn1cnnc1C1CCCN(C(=O)c2ccccn2)C1 (centres undefined)	-22.34%	3.601%	27.71%	4.439%
[H][C@@]12CN(Cc3ccsc3)CCO[C@]1([H])CN(Cc1cc(C)on1)C2	-	-4.676%	-	-
Cn1cnc(S(=O)(=O)NCCN2CCCCCC2)c1Cl	-2.265%	-32.55%	-1.71%	28.73% & 15.98%
N#Cc1cccc(CNC(=O)Nc2cccnc2N2CCCC2)c1	-11.63%	4.201%	-6.638%	8.498%
CC(C)NC(=O)Cc1cnc(-n2cccc2)s1	-24.01%	-15.07%	-2.983%	2.152%
N#CCCN(C(=O)CN1CCCC1Cc1ccccc1)c1ccccc1 (centres undefined)	-7.425%	-0.9784%	1.501%	9.731%
c1cnc(NCc2ncn3c2CN(Cc2cccnc2)CCC3)nc1	-5.987%	-	-1.501%	1.863%
Cc1noc(C)c1CNCc1c(C(C)C)nn(C)c1N1CCOCC1	6.68%	-10.48%	1.088%	5.696%
COC[C@]1(O)CCN(Cc2ccc(N(C)C)nc2)CC1(C)C	-9.694%	-23.63%	2.447%	1.899%
CCS(=O)(=O)c1ncc(CN(C)C)n1Cc1ccccc1	-12.3%	18.2%	-2.553%	-3.083%
Cc1ccc(C(O)CNCCn2cccn2)cc1C (centres undefined)	1.195%	-5.952%	-2.111%	4.824%
Cc1ccc(N2CCN(Cc3ccccc3)C3(CCNCC3)C2=O)cn1.O=C(O)C(F)(F)F	-	-4.153%	-	-
CCC(CO)NC(=O)Nc1cc(F)ccc1Br (centres undefined)	-1.292%	-3.816%	-3.121%	8.058%
CCCC(=O)N(CCCN1CCOCC1)c1nc2c(F)cccc2s1	1.716%	-	-5.091%	4.863%
CCCN1CCCN(c2ccc(-n3ccc(C)n3)nn2)CC1	-10.72%	5.67%	-5.997%	-0.9494%
COc1cc(Br)cc(CNC2CCCNC2=O)c1O (centres undefined)	-4.109%	4.937%	-4.198%	13.61%
O=C(NC1CC1)c1nc2c(o1)CN(c1ncccn1)C2	-1.234%	6.958%	-6.365%	-
CC1CCN(S(=O)(=O)c2cccn(CC(=O)NC3CCCC3)c2=O)CC1	-0.5141%	1.97%	1.782%	1.066%
N#CC1COCCN1C(=O)c1ccc2[nH]ccc2c1 (centres undefined)	-3.246%	18.34%	0.3028%	2.589%
Cc1nc(C)n(CC2CCCCN2Cc2nnc(-c3ccco3)o2)n1 (centres undefined)	1.012%	1.163%	-2.824%	8.264%
COCC(=O)N1CCC2(CC1)CN(c1cncnc1)C(=O)CO2	-2.271%	-13.63%	-4.535%	0.5%
CC(c1nc(C2CC2)no1)N1CCN(CCCN2CCCC2=O)CC1 (centres undefined)	5.847%	-20.75%	-3.215%	4.825%
CCNC(=O)COc1ccccc1N1CCCC(C)C1 (centres undefined)	-6.095%	-8.88%	-8.42%	-4.435%
O=C(O)C(F)(F)F.O=C1CC[C@]2(CC[C@@H](NC(=O)NCc3cccnc3)CC2)N1	-	-3.291%	-	-
COc1ccc2c(c1)Cc1c-2nc(N)c(C#N)c1C1CCOC1 (centres undefined)	-1394%	-7.626%	-0.4591%	8.156%
Cc1cnc(N2C[C@H]3CCN(CC4CC4)C[C@H]3C2)nc1	-8.802%	-	15.74%	-32.17%
CCCc1cc(=O)n(CC(=O)NC(C)C)c(-n2nc(C)cc2C)n1	-11.91%	-32.34%	-0.5869%	0.6017%
CCN(Cc1nc(COC)no1)Cc1cccnc1NC(=O)C(C)(C)C	-4.861%	2.136%	3.236%	-4.218%
CCOCC(=O)NC1(c2nc(C)cs2)CCCC1	-3.766%	6.25%	-3.989%	1.167%
Cc1nc(-c2ccc(F)cc2)nc2c1CCN(C(=O)CN(C)C)CC2	-4.599%	21.54%	-4.299%	-18.39%
CCCc1n[nH]c(C2CN(C(=O)c3n[nH]c4ccccc34)CCO2)n1 (centres undefined)	-20.31%	-12.59%	-5.649%	1.916%

For reference, 4 entries once more:

Cc1cnc(N2C[C@H]3CCN(CC4CC4)C[C@H]3C2)nc1 gave ClpP1P2: -8.802%; MtTrpRS: 15.74%; CoaBC: -32.17%.
c1ccc(OC[C@]23COC[C@H]2CN(c2ncccn2)C3)nc1 gave ClpP1P2: 10.72%; MtTrpRS: -4.302%; CoaBC: 7.234%.
CCN(Cc1nc(COC)no1)Cc1cccnc1NC(=O)C(C)(C)C gave ClpP1P2: -4.861%; Toxoplasma: 2.136%; MtTrpRS: 3.236%; CoaBC: -4.218%.
COC[C@]1(O)CCN(Cc2ccc(N(C)C)nc2)CC1(C)C gave ClpP1P2: -9.694%; Toxoplasma: -23.63%; MtTrpRS: 2.447%; CoaBC: 1.899%.